This note sets out measurements from PMC11876641, “Ephrin A1 functions as a ligand of EGFR to promote EMT and metastasis in gastric cancer” (The EMBO Journal, 2025).

By UniProt entry, the sequences of proteins in these tests, tags left out. Residues count along the entry.
UniProt P29317, residues 24-976: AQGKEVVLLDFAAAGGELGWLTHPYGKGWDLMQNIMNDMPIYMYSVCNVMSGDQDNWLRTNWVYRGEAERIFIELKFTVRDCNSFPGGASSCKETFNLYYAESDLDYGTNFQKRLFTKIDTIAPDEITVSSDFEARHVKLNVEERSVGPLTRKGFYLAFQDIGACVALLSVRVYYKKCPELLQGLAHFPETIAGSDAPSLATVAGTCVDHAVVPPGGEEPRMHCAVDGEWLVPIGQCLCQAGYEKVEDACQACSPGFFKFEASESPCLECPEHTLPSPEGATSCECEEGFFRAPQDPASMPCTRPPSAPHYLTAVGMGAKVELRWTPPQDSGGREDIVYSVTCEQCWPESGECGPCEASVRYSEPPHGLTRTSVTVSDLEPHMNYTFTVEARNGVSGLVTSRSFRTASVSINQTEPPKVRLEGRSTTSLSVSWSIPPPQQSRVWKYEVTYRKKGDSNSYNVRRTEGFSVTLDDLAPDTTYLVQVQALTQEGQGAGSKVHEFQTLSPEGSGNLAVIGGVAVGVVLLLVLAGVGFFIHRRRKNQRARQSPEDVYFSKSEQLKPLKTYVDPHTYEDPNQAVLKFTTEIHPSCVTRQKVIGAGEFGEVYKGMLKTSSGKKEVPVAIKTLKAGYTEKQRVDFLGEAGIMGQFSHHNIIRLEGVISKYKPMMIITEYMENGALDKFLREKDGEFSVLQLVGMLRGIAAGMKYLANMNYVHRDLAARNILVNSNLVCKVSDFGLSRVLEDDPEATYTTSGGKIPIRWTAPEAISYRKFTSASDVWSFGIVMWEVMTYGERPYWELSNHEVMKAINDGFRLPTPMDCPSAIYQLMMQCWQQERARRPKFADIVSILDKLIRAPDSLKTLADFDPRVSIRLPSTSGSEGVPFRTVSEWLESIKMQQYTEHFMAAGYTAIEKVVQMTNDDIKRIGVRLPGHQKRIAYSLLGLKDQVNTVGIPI

Results are given in words; binding and its absence hold for the method and conditions named. For some assays here: Binding seen in cells or lysates may run through a third protein. Some entries that bind do so weakly or less than the wild type.

One assay has as its target N-EGFR-Fc protein (UniProt P00533). As to the kind of experiment: pull-down; Fc fusion protein and its partner incubated in lysis buffer overnight at 4 °C; Protein A/G magnetic beads; both orientations (N-EGFR-Fc with Ephrin A1; Ephrin A1-Fc with EGFR protein); both purified.
The target of the next assay is EGFR-Flag (UniProt P00533). The experiment in a line: co-IP; Ephrin A1-overexpressing MKN45 cells transfected with control-Flag or EGFR-Flag; immunoprecipitation by Flag; western blot. In general terms: Immunoblotting shows a protein as a band on a membrane.
The next assay deals with Ephrin A1-Flag (human) (UniProt P20827). As to the kind of experiment: co-IP; NCI-N87, MKN45, AGS and MKN45-EphA2-KO cells transfected with control-Flag or Ephrin A1-Flag; anti-Flag beads; lysis buffer 20 mM Tris pH 8.0, 150 mM NaCl, 1 mM EDTA, 1 mM EGTA, 1% Triton-100; western blot.
The target in assay [1] is EGFR-Myc (wild type) (human) (UniProt P00533). The experiment in a line: co-IP; MKN45 cells transfected with EGFR-Myc wild type or deletion constructs; anti-Myc beads; western blot for Ephrin A1.

As to “Ephrin A1 protein purified from bacteria (from UniProt P20827 19-182) (ligand)”, the binding result with N-EGFR-Fc protein is “binds”.
“Ephrin A1 (overexpressed, untagged) (from UniProt P20827 19-182) (ligand)”: the binding entry in the assay with EGFR-Flag is given as “binds”.
Turning to “EphA2 (from UniProt P29317 24-976) (receptor)”, in the assay with Ephrin A1-Flag (human), the binding entry is “binds”.
Consider “Epidermal growth factor receptor (EGFR) (from UniProt P00533 25-1210)”, for which, in the assay with Ephrin A1-Flag (human), the binding entry is recorded as “binds”.
As to “Ephrin A1 (in MKN45 cells) (from UniProt P20827 19-182) (ligand)”, the binding entry in assay [1] is “binds”.
